Source: PubChem BioAssay AID1259254 (NCATS, 2017)

Test: 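Gene knock-downs that lead to re-replication, shown by excess G2 DNA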 (primary screen)
Cell system: human HCT116 colorectal cancer cells
Reagents: single siRNA against human genes
Duration: 3 days
Detection: 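Nuclei stained with Hoechst and imaged; cell-cycle phase assigned by DNA content; G2 share scaled per plate, non-targeting siRNA 0%, GMNN siRNA 100%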
Reading the numbers: G2 robust z-score: higher = more G2 cells, more excess DNA replication
Rule for the call: 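An siRNA counts as active if its G2 robust z-score lies at least 5 MADs above the screen median; here such calls match roughly 38% of GMNN control or more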
The deposit covers about 59,000 reagents; shown is a random part of them. About 1,550 of all reagents (2.6%) count as active. 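G2 share is only a proxy for re-replication; each gene was hit by three separate siRNAs, and active genes were retested.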 Reagents against one gene are numbered here. Further read-outs or replicates are left out here. Not given: the amount of reagent.

no.	gene	reagent no.	G2 robust z-score	activity call
1	RABL2A	1	2.96	inactive
2	RABL2A	2	-0.607	inactive
3	RABL2A	3	-1.48	inactive
4	RBBP8	1	3.16	inactive
5	RBBP8	2	0.572	inactive
6	RBBP8	3	2.76	inactive
7	ALDH3A1	1	-0.343	inactive
8	ALDH3A1	2	-1.18	inactive
9	ALDH3A1	3	0.0274	inactive
10	RSPO3	1	1.46	inactive
11	RSPO3	2	0.59	inactive
12	RSPO3	3	-0.114	inactive
13	SSR1	1	4.88	inactive
14	SSR1	2	0.476	inactive
15	SSR1	3	1.95	inactive
16	ATP1A3	1	-1.46	inactive
17	ATP1A3	2	-0.432	inactive
18	ATP1A3	3	15.1	active
19	TMED3	1	6.08	active
20	TMED3	2	-0.67	inactive
21	TMED3	3	-0.115	inactive
22	STX1B	1	-0.573	inactive
23	STX1B	2	-0.038	inactive
24	STX1B	3	-0.683	inactive
25	ZMIZ2	1	-0.162	inactive
26	ZMIZ2	2	0.0985	inactive
27	ZMIZ2	3	0.183	inactive
28	EMP3	1	-0.647	inactive
29	EMP3	2	2.23	inactive
30	EMP3	3	-0.128	inactive
31	TRIP11	1	1.3	inactive
32	TRIP11	2	-0.88	inactive
33	TRIP11	3	-0.173	inactive
34	MTDH	1	-0.401	inactive
35	MTDH	2	-0.095	inactive
36	MTDH	3	2.78	inactive
37	MPV17L	1	0.3	inactive
38	MPV17L	2	-0.433	inactive
39	MPV17L	3	0.781	inactive
40	SAXO2	1	2.83	inactive
41	SAXO2	2	1.52	inactive
42	SAXO2	3	0.777	inactive
43	ARFGAP1	1	-0.625	inactive
44	ARFGAP1	2	-1.12	inactive
45	ARFGAP1	3	1.18	inactive
46	PYGL	1	1.7	inactive
47	PYGL	2	2.69	inactive
48	PYGL	3	-1.04	inactive
49	GNA14	1	3.71	inactive
50	GNA14	2	0.597	inactive
51	GNA14	3	1.65	inactive
52	RPL9P25	1	3.7	inactive
53	RPL9P25	2	0.0696	inactive
54	RPL9P25	3	-0.919	inactive
55	CAAP1	1	2.11	inactive
56	CAAP1	2	-0.684	inactive
57	CAAP1	3	-0.153	inactive
58	FTSJ3	1	-0.802	inactive
59	FTSJ3	2	0.156	inactive
60	FTSJ3	3	1.74	inactive
61	SLC16A12	1	-0.257	inactive
62	SLC16A12	2	0.477	inactive
63	SLC16A12	3	-0.397	inactive
64	HIC2	1	2.21	inactive
65	HIC2	2	1.37	inactive
66	HIC2	3	0.132	inactive
67	NHLRC4	1	-0.585	inactive
68	NHLRC4	2	2.85	inactive
69	NHLRC4	3	-0.767	inactive

Reagents above with an active call (2):
gene	reagent no.	G2 robust z-score	activity call
ATP1A3	3	15.1	active
TMED3	1	6.08	active
